The supplement of paper PMC10849652
The other results are listed elsewhere or left out.

Chains of the proteins cited; added tags and fusions are not shown. Lines headed by an entry give the natural chain unless they say otherwise; changes in a name come on top.
UniProt P25788: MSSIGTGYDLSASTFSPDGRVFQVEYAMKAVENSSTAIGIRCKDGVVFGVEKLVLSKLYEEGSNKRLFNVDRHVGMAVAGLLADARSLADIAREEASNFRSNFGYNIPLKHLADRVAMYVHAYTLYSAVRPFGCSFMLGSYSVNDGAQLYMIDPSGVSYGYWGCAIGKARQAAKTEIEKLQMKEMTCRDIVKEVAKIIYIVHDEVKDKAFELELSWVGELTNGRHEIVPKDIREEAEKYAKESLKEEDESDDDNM
UniProt Q15032: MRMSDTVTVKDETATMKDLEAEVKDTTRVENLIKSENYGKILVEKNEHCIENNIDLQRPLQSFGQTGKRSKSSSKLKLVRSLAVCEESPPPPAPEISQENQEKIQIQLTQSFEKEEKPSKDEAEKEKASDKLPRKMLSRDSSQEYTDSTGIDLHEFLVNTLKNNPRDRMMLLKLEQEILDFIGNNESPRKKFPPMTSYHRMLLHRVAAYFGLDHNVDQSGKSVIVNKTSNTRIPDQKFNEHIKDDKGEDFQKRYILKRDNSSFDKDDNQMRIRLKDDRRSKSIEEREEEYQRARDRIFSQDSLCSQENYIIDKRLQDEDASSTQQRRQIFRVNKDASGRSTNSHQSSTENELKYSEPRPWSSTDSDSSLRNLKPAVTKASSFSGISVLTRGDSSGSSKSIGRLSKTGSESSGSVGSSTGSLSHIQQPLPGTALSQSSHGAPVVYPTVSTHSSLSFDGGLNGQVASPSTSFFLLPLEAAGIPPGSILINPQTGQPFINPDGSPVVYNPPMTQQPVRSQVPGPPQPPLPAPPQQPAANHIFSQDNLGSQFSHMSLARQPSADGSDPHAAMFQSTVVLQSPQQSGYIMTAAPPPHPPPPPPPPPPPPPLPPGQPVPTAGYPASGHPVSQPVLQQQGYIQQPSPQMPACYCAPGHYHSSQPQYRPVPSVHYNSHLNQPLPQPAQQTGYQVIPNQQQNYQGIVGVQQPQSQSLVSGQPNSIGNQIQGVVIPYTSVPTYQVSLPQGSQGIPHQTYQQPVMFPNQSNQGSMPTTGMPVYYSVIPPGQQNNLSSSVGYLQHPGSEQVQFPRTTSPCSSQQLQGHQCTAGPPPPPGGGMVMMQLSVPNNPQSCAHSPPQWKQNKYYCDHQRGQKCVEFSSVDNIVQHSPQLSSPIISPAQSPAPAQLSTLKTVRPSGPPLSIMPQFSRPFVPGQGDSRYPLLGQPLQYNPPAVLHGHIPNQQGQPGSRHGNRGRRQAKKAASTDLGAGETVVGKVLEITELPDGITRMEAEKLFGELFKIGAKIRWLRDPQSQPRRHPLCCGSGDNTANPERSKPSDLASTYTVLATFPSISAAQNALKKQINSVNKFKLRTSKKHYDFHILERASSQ
UniProt Q15257: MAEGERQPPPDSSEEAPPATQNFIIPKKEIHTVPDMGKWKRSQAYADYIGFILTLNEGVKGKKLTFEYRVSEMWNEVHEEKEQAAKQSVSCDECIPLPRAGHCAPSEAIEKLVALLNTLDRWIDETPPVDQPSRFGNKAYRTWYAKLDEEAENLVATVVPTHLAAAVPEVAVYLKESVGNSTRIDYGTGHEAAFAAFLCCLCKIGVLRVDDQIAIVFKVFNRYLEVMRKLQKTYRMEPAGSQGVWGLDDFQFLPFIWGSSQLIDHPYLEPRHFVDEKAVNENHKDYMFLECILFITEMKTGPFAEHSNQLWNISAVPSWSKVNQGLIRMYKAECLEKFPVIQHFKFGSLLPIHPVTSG
UniProt Q6GMV3: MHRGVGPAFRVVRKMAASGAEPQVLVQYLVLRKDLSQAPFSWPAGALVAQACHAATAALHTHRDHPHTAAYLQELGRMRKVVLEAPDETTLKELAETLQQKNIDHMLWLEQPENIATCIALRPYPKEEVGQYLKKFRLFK
UniProt P43686, whole entry, looked up: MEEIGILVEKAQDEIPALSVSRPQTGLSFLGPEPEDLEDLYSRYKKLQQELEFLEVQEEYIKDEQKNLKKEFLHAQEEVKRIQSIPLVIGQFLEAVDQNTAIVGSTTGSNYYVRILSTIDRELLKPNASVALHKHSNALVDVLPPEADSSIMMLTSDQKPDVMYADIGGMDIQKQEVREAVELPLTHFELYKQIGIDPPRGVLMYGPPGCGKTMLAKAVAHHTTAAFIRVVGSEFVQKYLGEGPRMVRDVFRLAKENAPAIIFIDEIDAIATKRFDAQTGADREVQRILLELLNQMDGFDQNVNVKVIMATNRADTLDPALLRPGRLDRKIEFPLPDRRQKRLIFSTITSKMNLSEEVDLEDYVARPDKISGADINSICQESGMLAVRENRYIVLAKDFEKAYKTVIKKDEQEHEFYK
UniProt P48556: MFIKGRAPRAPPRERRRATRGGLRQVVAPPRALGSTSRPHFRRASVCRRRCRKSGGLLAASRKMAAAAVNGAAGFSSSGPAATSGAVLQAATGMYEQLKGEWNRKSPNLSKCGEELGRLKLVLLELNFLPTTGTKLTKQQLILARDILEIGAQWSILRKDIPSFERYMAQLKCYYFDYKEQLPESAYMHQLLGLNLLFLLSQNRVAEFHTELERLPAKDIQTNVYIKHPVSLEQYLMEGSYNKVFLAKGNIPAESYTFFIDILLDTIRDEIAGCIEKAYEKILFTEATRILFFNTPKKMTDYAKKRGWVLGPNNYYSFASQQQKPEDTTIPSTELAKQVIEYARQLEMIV
UniProt Q99460, whole entry, looked up: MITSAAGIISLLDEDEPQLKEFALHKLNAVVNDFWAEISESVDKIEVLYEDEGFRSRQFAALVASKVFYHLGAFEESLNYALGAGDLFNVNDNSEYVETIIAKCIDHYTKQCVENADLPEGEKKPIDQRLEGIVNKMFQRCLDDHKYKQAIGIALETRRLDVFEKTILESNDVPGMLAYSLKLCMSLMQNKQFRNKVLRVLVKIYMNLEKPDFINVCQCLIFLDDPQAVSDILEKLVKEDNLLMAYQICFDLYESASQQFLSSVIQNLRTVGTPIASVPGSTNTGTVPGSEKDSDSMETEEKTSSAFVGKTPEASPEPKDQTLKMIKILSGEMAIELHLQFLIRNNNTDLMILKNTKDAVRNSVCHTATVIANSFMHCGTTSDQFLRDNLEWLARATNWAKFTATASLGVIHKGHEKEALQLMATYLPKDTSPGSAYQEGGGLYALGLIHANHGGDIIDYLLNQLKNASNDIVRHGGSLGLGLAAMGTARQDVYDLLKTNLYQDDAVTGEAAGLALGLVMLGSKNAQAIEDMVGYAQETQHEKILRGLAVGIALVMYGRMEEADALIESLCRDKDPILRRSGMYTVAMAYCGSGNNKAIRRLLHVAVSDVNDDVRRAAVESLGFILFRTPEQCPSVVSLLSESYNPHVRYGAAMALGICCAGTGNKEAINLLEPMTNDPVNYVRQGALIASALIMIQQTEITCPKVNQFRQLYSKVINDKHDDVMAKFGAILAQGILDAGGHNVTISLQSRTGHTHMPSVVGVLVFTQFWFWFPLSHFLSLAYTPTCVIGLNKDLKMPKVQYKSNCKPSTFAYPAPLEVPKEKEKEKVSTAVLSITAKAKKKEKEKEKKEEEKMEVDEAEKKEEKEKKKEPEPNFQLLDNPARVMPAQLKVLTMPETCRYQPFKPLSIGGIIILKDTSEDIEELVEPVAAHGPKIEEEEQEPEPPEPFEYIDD
UniProt Q9Y3E5: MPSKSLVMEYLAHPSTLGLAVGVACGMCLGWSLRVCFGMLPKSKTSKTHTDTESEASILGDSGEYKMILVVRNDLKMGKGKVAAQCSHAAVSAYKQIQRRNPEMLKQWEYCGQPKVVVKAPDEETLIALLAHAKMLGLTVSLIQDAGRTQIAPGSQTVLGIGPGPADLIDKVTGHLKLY

Experiments:
Assay in all cases: log2 fold change, soluble protein after heating vs DMSO (PISA); higher = thermal stabilisation; K562 cells, 10 uM, 30 min; active = over 0.2 and 3.5 SD of the protein, either way, in both replicates (recomputed)
saracatinib = compound: CN1CCN(CCOc2cc(OC3CCOCC3)c3c(Nc4c(Cl)ccc5c4OCO5)ncnc3c2)CC1 [saracatinib]
Summary of the method: (§1)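 Quantification of soluble protein used TMTpro 16plex LC-MS/MS, with channel sums equalised. Samples were the supernatant after 21,000xg for 90 min of pooled aliquots from K562 cells (2×10^6 cells/mL) treated with 10 μM compound for 30 min, heated for 3 min over 48°C-58°C, and extracted in PBS with 0.5% NP-40 at 4°C. Values, from duplicates, describe thermal stability against control samples on a log2 fold-change scale.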

sotrastaurin = compound: CN1CCN(c2nc(C3=C(c4c[nH]c5ccccc45)C(=O)NC3=O)c3ccccc3n2)CC1 [sotrastaurin]
Summary of the method: as §1

Tubastatin A = compound: CN1CCc2c(c3ccccc3n2Cc2ccc(C(=O)NO)cc2)C1 [Tubastatin A]
Summary of the method: as §1

[1] = compound: CNC(=O)C1=CC=CC=C1NC2=NC(=NC=C2Cl)NC3=C(C=C(C=C3)N4CCOCC4)OC
Summary of the method: as §1

defactinib = compound: CNC(=O)c1ccc(Nc2ncc(C(F)(F)F)c(NCc3nccnc3N(C)S(C)(=O)=O)n2)cc1 [defactinib]
Summary of the method: as §1

rucaparib = compound: CNCc1ccc(-c2[nH]c3cc(F)cc4c3c2CCNC4=O)cc1 [rucaparib]
Summary of the method: as §1

[2] = compound: CNc1nc(-c2ccc3c(N)n[nH]c3c2)cc(N2C[C@@H](C(=O)NC3CCCCC3)CC[C@H]2C)n1
Summary of the method: as §1

encorafenib = compound: COC(=O)N[C@@H](C)CNc1nccc(-c2cn(C(C)C)nc2-c2cc(Cl)cc(NS(C)(=O)=O)c2F)n1 [encorafenib]
Summary of the method: as §1

[3] = compound: COC(=O)[C@H](CCSC)NC(=O)C1=C(C=C(C=C1)NC[C@H](CS)N)C2=CC=CC=C2
Summary of the method: as §1

[4] = compound: COC1=CC=C(C=C1)CN2C=CC3=C2C=C(C=C3)C(=O)NO
Summary of the method: as §1

filanesib = compound: CON(C)C(=O)N1N=C(c2cc(F)ccc2F)S[C@@]1(CCCN)c1ccccc1 [filanesib]
Summary of the method: as §1

zotarolimus = compound: CO[C@H]1C[C@@H]2CC[C@@H](C)[C@@](O)(O2)C(=O)C(=O)N2CCCC[C@H]2C(=O)O[C@H]([C@H](C)C[C@@H]2CC[C@H](n3cnnn3)[C@H](OC)C2)CC(=O)[C@H](C)/C=C(\C)[C@@H](O)[C@@H](OC)C(=O)[C@H](C)C[C@H](C)/C=C/C=C/C=C/1C [zotarolimus]
Summary of the method: as §1

idasanutlin = compound: COc1cc(C(=O)O)ccc1NC(=O)[C@@H]1N[C@@H](CC(C)(C)C)[C@](C#N)(c2ccc(Cl)cc2F)[C@H]1c1cccc(Cl)c1F [idasanutlin]
Summary of the method: as §1

alisertib = compound: COc1cc(Nc2ncc3c(n2)-c2ccc(Cl)cc2C(c2c(F)cccc2OC)=NC3)ccc1C(=O)O [alisertib]
Summary of the method: as §1

[5] = compound: COc1cc2nc(-c3cc(F)ccc3O)nc(N[C@@H]3CNC[C@H]3C(C)(C)O)c2cc1OC
Summary of the method: as §1

gefitinib = compound: COc1cc2ncnc(Nc3ccc(F)c(Cl)c3)c2cc1OCCCN1CCOCC1 [gefitinib]
Summary of the method: as §1

[6] = compound: COc1cccc2cc(-c3nc([C@H]4CC[C@H](C(=O)O)CC4)n4ncnc(N)c34)[nH]c12
Summary of the method: as §1

lapatinib = compound: CS(=O)(=O)CCNCc1ccc(-c2ccc3ncnc(Nc4ccc(OCc5cccc(F)c5)c(Cl)c4)c3c2)o1 [lapatinib]
Summary of the method: as §1

pictilisib = compound: CS(=O)(=O)N1CCN(Cc2cc3nc(-c4cccc5[nH]ncc45)nc(N4CCOCC4)c3s2)CC1 [pictilisib]
Summary of the method: as §1

Row | Target | log2 fold change (saracatinib) | log2 fold change (sotrastaurin) | log2 fold change (Tubastatin A) | log2 fold change [1] | log2 fold change (defactinib) | log2 fold change (rucaparib) | log2 fold change [2] | log2 fold change (encorafenib) | log2 fold change [3] | log2 fold change [4] | log2 fold change (filanesib) | log2 fold change (zotarolimus) | log2 fold change (idasanutlin) | log2 fold change (alisertib) | log2 fold change [5] | log2 fold change (gefitinib) | log2 fold change [6] | log2 fold change (lapatinib) | log2 fold change (pictilisib)
1 | PSMA3 (UniProt P25788) | inactive: 0.012 | inactive: 0.038 | inactive: -0.006 | inactive: 0.014 | inactive: 0.048 | inactive: -0.001 | inactive: 0.02 | inactive: 0.034 | inactive: 0 | inactive: 0.015 | inactive: 0.034 | inactive: 0.044 | inactive: 0.019 | inactive: -0.04 | inactive: -0.079 | inactive: -0.025 | inactive: -0.003 | inactive: 0.062 | inactive: -0.053
2 | PTPA (UniProt A6PVN8) | inactive: 0.21 | inactive: 0.003 | inactive: 0.131 | inactive: -0.133 | inactive: -0.045 | inactive: 0.072 | inactive: -0.008 | inactive: 0.077 | inactive: 0.039 |  | inactive: 0.019 | inactive: -0.143 | inactive: 0.09 | inactive: -0.383 | inactive: -0.085 | inactive: 0.021 | inactive: 0.297 | inactive: 0.043 | inactive: 0.035
3 | R3HDM1 isoform 2 (UniProt Q15032) | inactive: -0.154 | inactive: -0.16 | inactive: 0.05 | inactive: -0.111 | inactive: -0.07 | inactive: 0.184 | inactive: 0.121 | inactive: -0.004 | inactive: 0.049 | inactive: 0.196 | inactive: 0.043 |  | inactive: -0.074 | inactive: 0.064 | inactive: 0.014 | inactive: 0.072 | inactive: 0.023 | inactive: 0.015 | inactive: 0.079
4 | PTPA (UniProt Q15257) | inactive: 0.009 | inactive: 0.068 | inactive: -0.029 | inactive: -0.036 | inactive: -0.033 | inactive: -0.045 | inactive: -0.012 | inactive: 0.012 | inactive: 0.003 | inactive: -0.015 | inactive: -0.022 | inactive: 0.02 | inactive: -0.064 | inactive: -0.041 | inactive: 0.034 | inactive: 0.018 | inactive: 0.036 | inactive: 0.012 | inactive: 0.02
5 | PTRHD1 (UniProt Q6GMV3) | inactive: -0.057 | inactive: 0.061 | inactive: 0.052 | inactive: 0.025 | inactive: 0 | inactive: -0.015 | inactive: -0.022 | inactive: -0.064 | inactive: 0.003 | inactive: -0.051 | inactive: 0.065 | inactive: -0.008 | inactive: 0.042 | inactive: -0.103 | inactive: -0.025 | inactive: 0.085 | inactive: 0.068 | inactive: -0.061 | inactive: 0.02
6 | PSMC4 (UniProt P43686) | inactive: -0.041 | inactive: -0.011 | inactive: -0.026 | inactive: -0.032 | inactive: 0.074 | inactive: 0.039 | inactive: 0.037 | inactive: 0.019 | inactive: 0.005 | inactive: -0.052 | inactive: 0.066 | inactive: 0.008 | inactive: 0.017 | inactive: -0.049 | inactive: -0.007 | inactive: -0.052 | inactive: -0.022 | inactive: 0.033 | inactive: -0.099
7 | PSMB2, A0A087WVV1 | inactive: 0.004 | inactive: -0.103 |  | inactive: -0.071 | inactive: -0.031 | inactive: -0.434 | inactive: -0.012 | inactive: 0.102 | inactive: 0.028 | inactive: 0.001 | inactive: 0.009 |  | inactive: -0.199 | inactive: 0.128 | inactive: -0.129 | inactive: 0.086 | inactive: -0.029 | inactive: 0.031 | inactive: 0.063
8 | PSMC3 (UniProt E9PLG2) | inactive: -0.197 | inactive: 0.081 | inactive: 0.079 |  | inactive: 0.172 |  | inactive: -0.252 |  | inactive: -0.026 | inactive: -0.612 | inactive: 0.17 |  |  | inactive: 0.071 |  |  | inactive: 0.079 |  | 
9 | PSMD8 (UniProt P48556) | inactive: -0.039 | inactive: -0.032 | inactive: 0.003 | inactive: -0.009 | inactive: 0.1 | inactive: 0.003 | inactive: 0.028 | inactive: 0.041 | inactive: 0.043 | inactive: -0.046 | inactive: 0.055 | inactive: -0.016 | inactive: 0.015 | inactive: -0.097 | inactive: -0.038 | inactive: -0.022 | inactive: -0.061 | inactive: 0.066 | inactive: 0.097
10 | PSMD1 (UniProt Q99460) | inactive: -0.033 | inactive: -0.064 | inactive: 0.016 | inactive: 0 | inactive: 0.087 | inactive: -0.003 | inactive: 0.048 | inactive: 0.062 | inactive: 0.018 | inactive: 0.009 | inactive: -0.002 | inactive: 0.011 | inactive: -0.005 | inactive: -0.126 | inactive: -0.077 | inactive: -0.046 | inactive: -0.056 | inactive: 0.069 | inactive: -0.052
11 | PSEN2 (UniProt P49810) | inactive: 0.212 | inactive: 0.244 |  | inactive: -0.018 |  |  | inactive: -0.121 |  |  |  | inactive: 0.141 |  | inactive: 0.037 | inactive: -0.011 |  |  | inactive: 0.193 |  | inactive: -0.068
12 | PTRH2 (UniProt Q9Y3E5) | inactive: -0.008 | inactive: 0.027 | inactive: -0.052 | inactive: 0.148 | inactive: -0.009 | inactive: -0.002 | inactive: -0.051 | inactive: 0.017 | inactive: 0 | active: 0.403 | inactive: -0.033 | inactive: 0.01 | inactive: -0.076 | inactive: -0.009 | inactive: 0.07 | inactive: 0.015 | inactive: 0.001 | inactive: 0.012 | inactive: -0.005

Part of the list above, as comma-separated lines.
Row,Target,log2 fold change (saracatinib),log2 fold change (sotrastaurin),log2 fold change (Tubastatin A),log2 fold change [1],log2 fold change (defactinib),log2 fold change (rucaparib),log2 fold change [2],log2 fold change (encorafenib),log2 fold change [3],log2 fold change [4],log2 fold change (filanesib),log2 fold change (zotarolimus),log2 fold change (idasanutlin),log2 fold change (alisertib),log2 fold change [5],log2 fold change (gefitinib),log2 fold change [6],log2 fold change (lapatinib),log2 fold change (pictilisib)
4,PTPA (UniProt Q15257),inactive: 0.009,inactive: 0.068,inactive: -0.029,inactive: -0.036,inactive: -0.033,inactive: -0.045,inactive: -0.012,inactive: 0.012,inactive: 0.003,inactive: -0.015,inactive: -0.022,inactive: 0.02,inactive: -0.064,inactive: -0.041,inactive: 0.034,inactive: 0.018,inactive: 0.036,inactive: 0.012,inactive: 0.02
5,PTRHD1 (UniProt Q6GMV3),inactive: -0.057,inactive: 0.061,inactive: 0.052,inactive: 0.025,inactive: 0,inactive: -0.015,inactive: -0.022,inactive: -0.064,inactive: 0.003,inactive: -0.051,inactive: 0.065,inactive: -0.008,inactive: 0.042,inactive: -0.103,inactive: -0.025,inactive: 0.085,inactive: 0.068,inactive: -0.061,inactive: 0.02
